According to patent US20160137744A1 (ONCOMED PHARMACEUTICALS, published 2016):
Results are given in words; binding and its absence hold for the method and conditions named. Some binding calls cover weakened binding; strength is not graded here. Sequences can lack the tags named with a protein.

By UniProt entry, the sequences of proteins in these tests, tags left out. Where a name states a change or a piece, a line headed by the entry shows the natural chain unless it says otherwise.
UniProt P08581: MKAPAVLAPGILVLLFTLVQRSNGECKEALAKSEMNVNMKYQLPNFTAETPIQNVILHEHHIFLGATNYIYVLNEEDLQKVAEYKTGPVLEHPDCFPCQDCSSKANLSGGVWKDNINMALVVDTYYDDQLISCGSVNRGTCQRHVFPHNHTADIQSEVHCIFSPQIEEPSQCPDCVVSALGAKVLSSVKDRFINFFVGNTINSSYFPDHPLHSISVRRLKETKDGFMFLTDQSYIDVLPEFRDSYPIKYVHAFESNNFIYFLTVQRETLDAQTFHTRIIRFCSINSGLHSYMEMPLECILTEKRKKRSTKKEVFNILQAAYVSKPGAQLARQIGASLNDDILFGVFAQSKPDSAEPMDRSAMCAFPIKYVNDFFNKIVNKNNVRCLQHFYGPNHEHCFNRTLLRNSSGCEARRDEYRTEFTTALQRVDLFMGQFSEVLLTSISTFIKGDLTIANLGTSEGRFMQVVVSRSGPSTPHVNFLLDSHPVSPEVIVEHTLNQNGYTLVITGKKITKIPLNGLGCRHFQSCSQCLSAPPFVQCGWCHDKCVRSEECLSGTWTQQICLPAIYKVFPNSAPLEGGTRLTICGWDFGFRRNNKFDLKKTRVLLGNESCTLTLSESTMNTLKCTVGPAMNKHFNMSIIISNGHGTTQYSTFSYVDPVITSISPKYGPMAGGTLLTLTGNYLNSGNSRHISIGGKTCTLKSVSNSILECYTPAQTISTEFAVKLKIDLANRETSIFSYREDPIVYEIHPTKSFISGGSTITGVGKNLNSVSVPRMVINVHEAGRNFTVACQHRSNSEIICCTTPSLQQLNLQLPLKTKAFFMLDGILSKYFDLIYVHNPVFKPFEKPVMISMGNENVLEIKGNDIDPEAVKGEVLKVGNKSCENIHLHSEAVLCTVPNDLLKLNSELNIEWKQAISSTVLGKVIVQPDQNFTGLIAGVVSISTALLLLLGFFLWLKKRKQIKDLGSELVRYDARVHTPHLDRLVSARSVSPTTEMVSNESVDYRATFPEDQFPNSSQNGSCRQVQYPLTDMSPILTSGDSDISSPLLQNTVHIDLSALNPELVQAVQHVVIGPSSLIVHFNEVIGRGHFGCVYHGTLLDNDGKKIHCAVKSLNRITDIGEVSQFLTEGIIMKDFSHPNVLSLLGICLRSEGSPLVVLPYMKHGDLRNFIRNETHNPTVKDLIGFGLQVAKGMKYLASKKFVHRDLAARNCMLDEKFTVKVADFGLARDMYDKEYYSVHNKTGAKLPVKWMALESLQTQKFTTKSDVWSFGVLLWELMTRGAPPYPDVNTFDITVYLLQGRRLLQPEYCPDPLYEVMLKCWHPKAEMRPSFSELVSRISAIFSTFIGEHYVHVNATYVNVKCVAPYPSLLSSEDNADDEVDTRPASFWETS

Biological target: human MET (soluble analyte in Biacore) (human, UniProt P08581 25-932)
Test: SPR (Biacore 2000)

B1: anti-MET/FZD8-Fc bispecific agent 315B6 (bispecific antibody, human IgG2, kappa)
heavy: QVQLQESGPGLVKPSETLSLTCTVTGTTITASYAWSWIRQPPGKGLEWMGYISYSGGTDYNPSLKSRITISRDTFKNQFSLKLSSVTAADTATYYCARKGAYWGQGTLVTVSSASTKGPSVFPLAPCSRSTSESTAALGCLVKDYFPEPVTVSWNSGALTSGVHTFPAVLQSSGLYSLSSVVTVPSSNFGTQTYTCNVDHKPSNTKVDKTVERKCCVECPPCPAPPVAGPSVFLFPPKPKDTLMISRTPEVTCVVVDVSHEDPEVQFNWYVDGVEVHNAKTKPREEQFNSTFRVVSVLTVVHQDWLNGKEYKCKVSNKGLPAPIEKTISKTKGQPREPQVYTLPPSREKMTKNQVSLTCLVKGFYPSDIAVEWESNGQPENNYKTTPPMLKSDGSFFLYSKLTVDKSRWQQGNVFSCSVMHEALHNHYTQKSLSLSPGK
light: DIVLTQSPATLSASPGEKVTLTCSASSSVSSSYLYWYQQKPGQAPKLLIYSTSNLASGVPARFSGSGSGTSYSLTISSLEPEDFATYYCHQWSSYPYTFGGGTKLEIKRTVAAPSVFIFPPSDEQLKSGTASVVCLLNNFYPREAKVQWKVDNALQSGNSQESVTEQDSKDSTYSLSSTLTLSKADYEKHKVYACEVTHQGLSSPVTKSFNRGEC
chain: ASAKELACQEITVPLCKGIGYNYTYMPNQFNHDTQDEAGLEVHQFWPLVEIQCSPDLKFFLCSMYTPICLEDYKKPLPPCRSVCERAKAGCAPLMRQYGFAWPDRMRCDRLPEQGNPDTLCMDYNRTDLTTTKVDKTVERKSCVECPPCPAPPVAGPSVFLFPPKPKDTLMISRTPEVTCVVVDVSHEDPEVQFNWYVDGVEVHNAKTKPREEQFNSTFRVVSVLTVVHQDWLNGKEYKCKVSNKGLPAPIEKTISKTKGQPREPQVYTLPPSREEMTKNQVSLTCLVEGFYPSDIAVEWESNGQPENNYKTTPPMLDSDGSFFLYSELTVDKSRWQQGNVFSCSVMHEALHNHYTQKSLSLSPGK
notes: Heterodimer of a monovalent 73R009 arm (heavy + light) and a FZD8 Fri-Fc fusion arm; plasmids ATCC PTA-13609, PTA-13610, PTA-13611; also called bispecific anti-MET/FZD8-Fc agent
- binding: binds
